Data as given in PubChem BioAssay AID1259308 (NCATS, 2017).

Purpose: 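Knock-downs that increase output of a recombinant reporter protein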 (primary screen)
Cell system: human HEK293 embryonic kidney cells stably expressing firefly luciferase (HEK-CMV-Luc2-Hygro)
Knock-down reagent: single siRNA against human genes, 0.8 pmol siRNA per well
Time to read-out: 72 h
Read-out: 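Luciferase light (ONE-Glo) measured on one replicate plate set and viability (CellTiter-Glo) on the other, scaled to a negative control siRNA, with robust z-scores and luciferase per cell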
Reading the numbers: total luciferase, z-score: higher = more reporter protein produced
Rule for the call: 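Active when the median/MAD z-score for overall luciferase is greater than 3; a gene was taken forward for validation with new siRNAs if at least two of its three siRNAs passed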
Meaning of the calls: active = raised luciferase; inactive = no rise
This is a random part of about 59,000 deposited reagents. Of all reagents, about 1,510 (2.6%) are marked active. 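Calls use total luciferase alone and ignore viability, so some active siRNAs may act by altering cell number.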 A number with no mark means an inactive call. The numbers tell different reagents against one gene apart. Not all columns of the deposit are shown.

gene symbol	reagent	total luciferase, z-score
RHOT1 (ras homolog family member T1)	1	1.26
RHOT1 (ras homolog family member T1)	2	-0.646
RHOT1 (ras homolog family member T1)	3	-1.13
TTPA (alpha tocopherol transfer protein)	1	-0.76
TTPA (alpha tocopherol transfer protein)	2	0.116
TTPA (alpha tocopherol transfer protein)	3	-1.08
SH2B1 (SH2B adaptor protein 1)	1	-0.42
SH2B1 (SH2B adaptor protein 1)	2	-1.79
SH2B1 (SH2B adaptor protein 1)	3	-0.832
CTPS2 (CTP synthase 2)	1	0.0389
CTPS2 (CTP synthase 2)	2	0.219
CTPS2 (CTP synthase 2)	3	-0.893
AHCTF1 (AT-hook containing transcription factor 1)	1	1.06
AHCTF1 (AT-hook containing transcription factor 1)	2	0.0965
AHCTF1 (AT-hook containing transcription factor 1)	3	1.76
MTFR2 (mitochondrial fission regulator 2)	1	-0.543
MTFR2 (mitochondrial fission regulator 2)	2	1.14
MTFR2 (mitochondrial fission regulator 2)	3	1.55
TANGO6 (transport and golgi organization 6 homolog)	1	0.701
TANGO6 (transport and golgi organization 6 homolog)	2	0.0635
TANGO6 (transport and golgi organization 6 homolog)	3	0.717
EEF2 (eukaryotic translation elongation factor 2)	1	-1.71
EEF2 (eukaryotic translation elongation factor 2)	2	-0.371
EEF2 (eukaryotic translation elongation factor 2)	3	-0.255
MYSM1 (Myb like, SWIRM and MPN domains 1)	1	1.21
MYSM1 (Myb like, SWIRM and MPN domains 1)	2	-0.474
MYSM1 (Myb like, SWIRM and MPN domains 1)	3	1.3
ERGIC3 (ERGIC and golgi 3)	1	2.91
ERGIC3 (ERGIC and golgi 3)	2	0.291
ERGIC3 (ERGIC and golgi 3)	3	1.41
EPB41L1 (erythrocyte membrane protein band 4.1 like 1)	1	-0.631
EPB41L1 (erythrocyte membrane protein band 4.1 like 1)	2	2.74
EPB41L1 (erythrocyte membrane protein band 4.1 like 1)	3	-1.35
ADGRD1 (adhesion G protein-coupled receptor D1)	1	-0.102
ADGRD1 (adhesion G protein-coupled receptor D1)	2	0.495
ADGRD1 (adhesion G protein-coupled receptor D1)	3	-1.08
TSEN2 (tRNA splicing endonuclease subunit 2)	1	-0.256
TSEN2 (tRNA splicing endonuclease subunit 2)	2	0.934
TSEN2 (tRNA splicing endonuclease subunit 2)	3	5.03 (active)
TCOF1 (treacle ribosome biogenesis factor 1)	1	0.0392
TCOF1 (treacle ribosome biogenesis factor 1)	2	1.08
TCOF1 (treacle ribosome biogenesis factor 1)	3	2.73
MASP1 (MBL associated serine protease 1)	1	2.66
MASP1 (MBL associated serine protease 1)	2	-1.24
MASP1 (MBL associated serine protease 1)	3	-0.436
SMIM11 (small integral membrane protein 11)	1	-0.79
SMIM11 (small integral membrane protein 11)	2	-0.528
SMIM11 (small integral membrane protein 11)	3	0.4
CFHR1 (complement factor H related 1)	1	-1.68
CFHR1 (complement factor H related 1)	2	-1.02
CFHR1 (complement factor H related 1)	3	-0.346
NIPAL4 (NIPA like domain containing 4)	1	1.16
NIPAL4 (NIPA like domain containing 4)	2	-2.08
NIPAL4 (NIPA like domain containing 4)	3	-0.94
CCNK (cyclin K)	1	-1.27
CCNK (cyclin K)	2	0.82
CCNK (cyclin K)	3	0.407
